# Measured values as given in PubChem BioAssay (NCATS).
# The inconclusive results got no clear call from the source; some entries with a clear call stand among them for comparison. Potencies beside an inconclusive call are fits to weak or partial responses and may not hold up. The source made the active and inactive calls. Calls come from the whole dose curve; as a rule, active = well fitted cell-killing curve with a large enough effect; inconclusive = small, poorly fitted or top-dose-only effect, or effect the other way; inactive = no such curve, though single readings can be large or run the other way.
# Experiment: Quantitative High-Throughput drug screen in 47 multiple myeloma cell lines against the NCATS MIPE library collection: KMS20_JCRB cell viability assay (AID 1918973); note: nearly all actives have a fitted effect of over 45% in size
# Details: CellTiter-Glo ATP, 48 h; viability (% of DMSO): at 45.8 µM (top of the series)
# Excerpt: PI: Beverly A. Mock Ph.D.
# Laboratory of Cancer Biology and Genetics,
# Center for Cancer Research, National Cancer Institute,
# National Institute of Health, Bethesda, Maryland
# Drug resistance and disease progression are common in multiple myeloma (MM) patients, underscoring the need for new therapeutic combinations. […] We hypothesized that effective combinations would reduce MYC expression and enhance p16 activity. […] These preclinical data identify potentially useful drug combinations for evaluation in drug-resistant MM and reveal potential mechanisms of combined drug sensitivity.
# Described herein is the primary MIPE qHTS used to cherrypick compounds. Validated compounds were then further tested for potential synergistic activiy.
# [1] Peat TJ, Gaikwad SM, Dubois W, Gyabaah-Kessie N, Zhang S, Gorjifard S, Phyo Z, Andres M, Hughitt VK, Simpson RM, Miller MA, Girvin AT, Taylor A, Williams D, D'Antonio N, Zhang Y, Rajagopalan A, Flietner E, Wilson K, Zhang X, Shinn P, Klumpp-Thomas C, McKnight C, Itkin Z, Chen L, Kazandijian D, Zhang J, Michalowski AM, Simmons JK, Keats J, Thomas CJ, Mock BA. Drug combinations identified by high-throughput screening promote cell cycle transition and upregulate Smad pathways in myeloma. Cancer Lett. 2023 Aug 1;568:216284. doi: 10.1016/j.canlet.2023.216284. Epub 2023 Jun 24. PMID: 37356470; PMCID: PMC10408729.
# SEQUENCE No. (e.g., 1, 2, 3, etc.); […] (e.g., Cells, Incubation, Reagent, etc.); VALUE and DESCRIPTION.
# 1; Cells; 5 uL; white, solid bottom 1536-well Greiner assay plate.
# 2; Compounds; 23 nL; Kalypsis pin tool (Wako USA) equipped with a 1536-well pin head to transfer to the assay plates.
# 3; Incubation; 48 hours; 37C incubation.
# 4; Reagent;5uL; CellTiter Glo (Promega).
# 5; Detector; 425V; Luminescence; Viewlux PerkinElmer.
# NOTES (numbers refer to Sequence numbers above)
# 1. The cell-based screening methods employed in this study were like those previously published. Briefly, the corresponding myeloma cell lines were screened in 1,536-well plates with 500 cells, 5-uL per well for inhibition of cell viability (assessed by measuring ATP levels with CellTiterGlo).
# 2. NCATS MIPE 4.0 library of approved and investigational drugs were added using the Kalypsis pin tool. Wells treated with DMSO only for 100% viability and media only wells for 0% viability were used as controls.
# 3. The assay plates were covered and incubated for 48 hours in a 37C, 5% CO2 incubator with controlled humidity.
# 4. After 48 hours, CellTilter-GloTM luminescent substrate mix (Promega) reagent was added to the assay plate and plates we incubated for 5 min at room temperature.
# 5. Signal was measured as median relative luminescence units on a ViewLux (PerkinElmer) multiplate reader.
# [1] Heske CM, Davis MI, Baumgart JT, Wilson K, Gormally MV, Chen L, Zhang X, Ceribelli M, Duveau DY, Guha R, Ferrer M, Arnaldez FI, Ji J, Tran HL, Zhang Y, Mendoza A, Helman LJ, Thomas CJ. Matrix Screen Identifies Synergistic Combination of PARP Inhibitors and Nicotinamide Phosphoribosyltransferase (NAMPT) Inhibitors in Ewing Sarcoma. Clin Cancer Res. 2017 Dec 1;23(23):7301-7311. doi: 10.1158/1078-0432.CCR-17-1121. Epub 2017 Sep 12. PMID: 28899971; PMCID: PMC6636827.
# Potency is the fitted concentration of half-maximal effect.
SMILES,Potency,viability (% of DMSO)
CCC(C(=O)O)C1CCC(C)C(C(C)C(O)C(C)C(=O)C(CC)C2OC3(C=CC(O)[C@@]4(CC[C@](C)(C5CC[C@@](O)(CC)C(C)O5)O4)O3)C(C)CC2C)O1 (stereo not given in full),"inconclusive: 1.32 µM [cytotoxic, full curve, poor fit]",–
NC(=O)Nc1cc(-c2cccc(F)c2)sc1C(=O)N[C@H]1CCCNC1,active: 0.662 µM,–
COc1ccc(CCN(C)CCCOc2ccc(S(=O)(=O)c3[nH]c4ccccc4c3C(C)C)cc2)cc1OC,"inconclusive: 23.5 µM [cytotoxic, partial curve, poor fit]",–
COc1cc2c(Nc3ccc(NC(=O)c4ccccc4)cc3)ncnc2cc1OCCCN1CCOCC1,active: 10.5 µM,–
CN(C)CCCNC(=O)c1ccc(-c2cc(O)c3ncccc3c2)cc1,"inconclusive: 23.5 µM [cytotoxic, partial curve, poor fit]",–
Cc1ccc(-c2ncn(-c3ccc(Nc4nccc(-c5cccc(N6CCOCC6)c5)n4)cc3)n2)cn1,active: 0.0833 µM,–
CC[C@H]1OC(=O)[C@H](C)[C@@H](O[C@H]2C[C@@](C)(OC)[C@@H](O)[C@H](C)O2)[C@H](C)[C@@H](O[C@@H]2O[C@@H](C)C[C@H](N(C)C)[C@@H]2O)[C@](C)(O)C[C@@H](C)C(=O)[C@H](C)[C@@H](O)[C@]1(C)O,"inconclusive: 0.0743 µM [cytotoxic, full curve, poor fit]",–
NC(N)=NC(=O)c1nc(Cl)c(N)nc1N,"inconclusive: 3.72 µM [cytotoxic, full curve, poor fit]",–
COc1cc2c(cc1OC)CN(CCc1ccc(NC(=O)c3cccc4c(=O)c5cccc(OC)c5[nH]c34)cc1)CC2,"inconclusive: 0.003 µM [rising, full curve, poor fit]",–
CS(=O)(=O)Nc1ccc([N+](=O)[O-])cc1Oc1ccccc1,"inconclusive: 0.935 µM [rising, full curve, poor fit]",–
CC(C)(S)[C@@H](N)C(=O)O,"inconclusive: 11.8 µM [cytotoxic, single point]",–
CNC(=O)c1ccc2c(C(=Nc3cccc(CN(C)C)c3)c3ccccc3)c(O)[nH]c2c1,"inconclusive: 18.7 µM [cytotoxic, partial curve, poor fit]",–
O=C1CSC(=O)N1C(CCc1ccncc1)COc1ccc(-c2cccc([N+](=O)[O-])c2)cc1 (stereo not given),active: 10.5 µM,–
CC(C)Oc1ccc(C(=O)N[C@H](CNC(=O)CN(C)C)Cc2ccc(-c3cn4cccc([C@H](C)O)c4n3)cc2)cc1Cl,active: 0.235 µM,–
O=C1c2cccc(O)c2C(=O)c2c(O)cc(CO)cc21,inactive,–
O=C(C[C@@H]1CC=CCCC(=O)O[C@H](c2ccccc2)CNC1=O)NCc1ccc(Cl)cc1,"inconclusive: 8.33 µM [cytotoxic, partial curve, poor fit]",–
Nc1ccc(S(=O)(=O)Nc2ccccn2)cc1,inactive,–
C=CC(=O)Nc1cc(NC(=O)c2ccc(C)c(NC(=O)c3ccno3)c2)cc(C(F)(F)F)c1,"inconclusive: 14.8 µM [cytotoxic, partial curve, poor fit]",–
Cc1cccc(Nc2nc(N[C@@H]3CCCC[C@H]3N)ncc2C(N)=O)c1,active: 4.69 µM,–
CC(=O)NC(CS)C(=O)O (stereo not given),inactive,–

SMILES,Potency,viability (% of DMSO)
Cc1cc(Nc2cc(N3CCN(C)CC3)nc(C=Cc3ccccc3)n2)n[nH]1,active: 4.29 µM,–
CC[C@H](CC[C@@H](C)[C@H]1CC[C@H]2[C@@H]3CC=C4C[C@@H](O)CC[C@]4(C)[C@@H]3CC[C@]12C)C(C)C,inactive,–
O=C(Nc1nnc(-c2ccco2)o1)c1cc(-c2ccccc2)nc2ccccc12,active: 16.6 µM,–
Cc1cnc(Nc2cccc(CN3CCOCC3)c2)nc1Nc1cccc(S(=O)(=O)NC(C)(C)C)c1,active: 2.96 µM,–
N#CC1(c2cccc(C(=O)Nc3cc(Oc4ccc5nc(NC(=O)C6CC6)sc5n4)ccc3F)c2Cl)CC1,active: 0.469 µM,–
CC(C)c1c(C(=O)Nc2ccccc2)c(-c2ccccc2)c(-c2ccc(F)cc2)n1CC[C@H](O)C[C@@H](O)CC(=O)O,"inconclusive: 23.5 µM [cytotoxic, partial curve, poor fit]",–
CCOC(=O)[C@H](CCc1ccccc1)N[C@H]1CCc2ccccc2N(CC(=O)O)C1=O,active: 5.9 µM,–
CC=C(C(=CC)c1ccc(O)cc1)c1ccc(O)cc1,"inconclusive: 26.4 µM [cytotoxic, single point]",–
NS(=O)(=O)c1cc(Cl)c(Cl)c(S(N)(=O)=O)c1,"inconclusive: 11.8 µM [cytotoxic, full curve, poor fit]",–
COCC(=O)NCC=Cc1ccc2ncnc(Nc3ccc(Oc4ccc(C)nc4)c(C)c3)c2c1,–,inconclusive: 21.3% [cytotoxic]
CC(C)(Sc1ccc(CCN(CCCCC2CCCCC2)C(=O)NC2CCCCC2)cc1)C(=O)O,"inconclusive: 23.5 µM [cytotoxic, single point]",–
CNC[C@@H](O)[C@@H](O)[C@H](O)[C@H](O)CO,"inconclusive: 0.0332 µM [rising, full curve, poor fit]",–
CCN1CCCC1CNC(=O)c1cc(S(N)(=O)=O)ccc1OC (stereo not given),"inconclusive: 0.0017 µM [cytotoxic, full curve, poor fit]",–
CCC(c1ccc(O)cc1)C(CC)c1ccc(O)cc1 (stereo not given),"inconclusive: 0.0105 µM [cytotoxic, full curve, poor fit]",–
CC(C)OC(=O)[C@H](C)N[P@](=O)(OC[C@H]1O[C@@H](n2ccc(=O)[nH]c2=O)[C@](C)(F)[C@H]1O)Oc1ccccc1,"inconclusive: 0.0021 µM [rising, full curve, poor fit]",–
C[C@H](CCC(=O)O)[C@H]1CC[C@H]2[C@H]3[C@@H](CC[C@]12C)[C@@]1(C)CC[C@@H](O)C[C@H]1C[C@@H]3O,inactive,–
C[C@@H](NC(=O)c1ncnc(N)c1Cl)c1ncc(C(=O)Nc2cc(C(F)(F)F)c(Cl)cn2)s1,"inconclusive: 8.33 µM [cytotoxic, partial curve, poor fit]",–
CCOC(=O)c1ncn2c1CN(C)C(=O)c1cc(F)ccc1-2,"inconclusive: 0.743 µM [rising, full curve, poor fit]",–
CO[C@@H]1C(N(C)C(=O)c2ccccc2)C[C@H]2O[C@]1(C)n1c3ccccc3c3c4c(c5c6ccccc6n2c5c31)C(=O)NC4=O (stereo not given in full),active: 3.72 µM,–
CCc1cc(-c2n[nH]c(C)c2-c2ccc3c(c2)OCCO3)c(O)cc1O,"inconclusive: 5.9 µM [cytotoxic, full curve, poor fit]",–

# In another format: entries from further up
SMILES | Potency | viability (% of DMSO)
CC(C)(Sc1ccc(CCN(CCCCC2CCCCC2)C(=O)NC2CCCCC2)cc1)C(=O)O | inconclusive: 23.5 µM [cytotoxic, single point] | –
CNC[C@@H](O)[C@@H](O)[C@H](O)[C@H](O)CO | inconclusive: 0.0332 µM [rising, full curve, poor fit] | –
